Literature values, collected in EP4737486A1, “HYALURONIC ACID DERIVATIVE, AND PREPARATION METHOD THEREFOR AND USE THEREOF” (priority 2023, dated 2025).
Some entries share one result that the patent states for a list of compounds.

Biological target: SARS-CoV-2 spike protein (Severe acute respiratory syndrome coronavirus 2, UniProt P0DTC2)
Conditions: according to existing studies; cited from earlier work

CO[C@H]1O[C@H](COS(=O)(=O)O)[C@@H](O[C@@H]2O[C@@H](C(=O)O)[C@@H](O[C@H]3O[C@H](COS(=O)(=O)O)[C@@H](O[C@@H]4O[C@H](C(=O)O)[C@@H](O[C@H]5O[C@H](COS(=O)(=O)O)[C@@H](O)[C@H](O)[C@H]5NS(=O)(=O)O)[C@H](O)[C@H]4O)[C@H](OS(=O)(=O)O)[C@H]3NS(=O)(=O)O)[C@H](O)[C@H]2OS(=O)(=O)O)[C@H](O)[C@H]1NS(=O)(=O)O [Arixtra]
binding to the SARS-CoV-2 spike protein: weak binding
